{
  "sequences": {"note": "By UniProt entry, the sequences of proteins in these tests, tags left out.", "UniProt Q0JBA9, entry or part of it": "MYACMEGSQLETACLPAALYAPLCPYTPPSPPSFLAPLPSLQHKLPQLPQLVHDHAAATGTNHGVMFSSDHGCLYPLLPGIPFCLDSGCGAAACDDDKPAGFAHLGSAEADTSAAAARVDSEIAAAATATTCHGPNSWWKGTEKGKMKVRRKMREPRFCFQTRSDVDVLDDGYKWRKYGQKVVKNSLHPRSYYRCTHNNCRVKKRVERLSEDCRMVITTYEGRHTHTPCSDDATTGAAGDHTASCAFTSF"},
  "source": "paper PMC7819943",
  "about": "“Rice protein-binding microarrays: a tool to detect cis-acting elements near promoter regions in rice”",
  "note": "This is one part of the list.",
  "data": [
    {"biological_target": "OsWRKY34 (Oryza sativa, UniProt Q0JBA9 1-250)", "assay": "protein-binding microarray (RPBM); PBS, 2% BSA, 51.3 ng/ul salmon testes DNA, 50 uM zinc acetate, 200 nM TF, 25 C, 1 h; high values mean tight binding", "conditions": "protein: recombinant; tags: N-terminal polyhistidine and DsRed monomer fusion (pET32a); label: CyDye5-dUTP incorporated in the synthesized complementary strand; 3' TTTTT single-stranded linker to array surface; dsDNA, one strand shown", "method_in_brief": "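Ni–NTA purification followed expression in E. coli BL21-CodonPlus of transcription factors fused N-terminally to a polyhistidine tag and DsRed. At 200 nM in PBS with 2% BSA, salmon testes DNA and 50 µM zinc acetate, the protein was incubated for 1 h at 25 °C with a custom Agilent array that had been primer-extended with Cy5-dUTP and blocked with 2% BSA. After washing, the array was read on an Axon 4000B scanner. The binding signal is per-feature fluorescence intensity in arbitrary units.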", "values": [
      {"sequence": "CATCCACCGCGCCGTCGCCCAGACCACCACCTCCACCGCTCGGAGTCACCTAGTGCAG", "binding signal": "8580 fluorescence intensity (a.u.)"},
      {"sequence": "CCGAAATTGTGAACCCTGAGCTAGTCAGTCCCATCCTTTTCGGAGTCACCTAGTGCAG", "binding signal": "8070 fluorescence intensity (a.u.)"},
      {"sequence": "ACCACCACCACCACCGCCCGCCAAGCGCGGCCCGCCCGACCGGAGTCACCTAGTGCAG", "binding signal": "8720 fluorescence intensity (a.u.)"},
      {"sequence": "AACATGCTTAATTTCCACTTGACACTCTTCTTCAGACCTGCGGAGTCACCTAGTGCAG", "binding signal": "11400 fluorescence intensity (a.u.)"},
      {"sequence": "CCTGCCAATCTACCATACATGCACCACTGCTCCACCGCCACGGAGTCACCTAGTGCAG", "binding signal": "9880 fluorescence intensity (a.u.)"},
      {"sequence": "CTAAAGCGATTGCACATTCCTTACAATATTTCTGTTGTTCCGGAGTCACCTAGTGCAG", "binding signal": "12200 fluorescence intensity (a.u.)"},
      {"sequence": "AAGCAGCTACACTCTTGAGATCTCTTGCTACGATTCTTCACGGAGTCACCTAGTGCAG", "binding signal": "8600 fluorescence intensity (a.u.)"},
      {"sequence": "GCTCGATCCATTTAGGTAATTACTGCTCAACTAGCGATGACGGAGTCACCTAGTGCAG", "binding signal": "8620 fluorescence intensity (a.u.)"},
      {"sequence": "CGATCCCTTCTAGGCCCTAGAATTTACTTGGGCCATTCATCGGAGTCACCTAGTGCAG", "binding signal": "8540 fluorescence intensity (a.u.)"},
      {"sequence": "GGTTTGTCGTTCAGATTTGGATTAGTTCGAGGGTTTCGTGCGGAGTCACCTAGTGCAG", "binding signal": "8520 fluorescence intensity (a.u.)"},
      {"sequence": "ACTTTTTATTTTTTTTCCTTTGAGTAGTCAAAAGCAACATCGGAGTCACCTAGTGCAG", "binding signal": "9230 fluorescence intensity (a.u.)"},
      {"sequence": "CTTCCGGTTCTTTTTCTCAATCGCTTGATTCTCATCCTGTCGGAGTCACCTAGTGCAG", "binding signal": "10500 fluorescence intensity (a.u.)"},
      {"sequence": "AACCTCCAACCTTTTAATTTCTCACGCGACCATGCACGACCGGAGTCACCTAGTGCAG", "binding signal": "8820 fluorescence intensity (a.u.)"},
      {"sequence": "AAATCAACCACTCTTATCCCATCCGTCCATCCACCCTCTCCGGAGTCACCTAGTGCAG", "binding signal": "10800 fluorescence intensity (a.u.)"},
      {"sequence": "AATTAGTTATTATCTCTTCTTCTTCCTTGGTTCAGTTTCCCGGAGTCACCTAGTGCAG", "binding signal": "9030 fluorescence intensity (a.u.)"},
      {"sequence": "TTCTTGGGGTGTTCTTGACTGGAAGGTTTCTTTGGTGATGCGGAGTCACCTAGTGCAG", "binding signal": "8130 fluorescence intensity (a.u.)"},
      {"sequence": "TCACGGCTCATTTTTGAAATAAGTTTTTAGCACAGTTTATCGGAGTCACCTAGTGCAG", "binding signal": "8740 fluorescence intensity (a.u.)"},
      {"sequence": "TCTCTTTCTATTGCCCTGTGATTCTTTCTTTCATCGTCGTCGGAGTCACCTAGTGCAG", "binding signal": "11100 fluorescence intensity (a.u.)"},
      {"sequence": "ACTTCACATTCACCTTGCACAACCTGTTGCCTTACTTCTTCGGAGTCACCTAGTGCAG", "binding signal": "10400 fluorescence intensity (a.u.)"},
      {"sequence": "CTCTCTTCTCTTCTCCACGTCATCATTTAGCCGATTTATACGGAGTCACCTAGTGCAG", "binding signal": "11700 fluorescence intensity (a.u.)"},
      {"sequence": "TGAAGCGTCCCTTTTTTATCCAATGGTCACTACATATTTTCGGAGTCACCTAGTGCAG", "binding signal": "8930 fluorescence intensity (a.u.)"},
      {"sequence": "GGTCAATATATATTTCTTTTTCATGGTTGTCATCACTCCTCGGAGTCACCTAGTGCAG", "binding signal": "13000 fluorescence intensity (a.u.)"},
      {"sequence": "GGTTTGGTGGCGGAAAAGGTGGAGGCCTAGGTGGTGGTGGCGGAGTCACCTAGTGCAG", "binding signal": "8660 fluorescence intensity (a.u.)"},
      {"sequence": "GAATGGGCCACGTCACTGTTCACTCCTGGTCCCATTCCATCGGAGTCACCTAGTGCAG", "binding signal": "8150 fluorescence intensity (a.u.)"},
      {"sequence": "GCATTGGTTGGTGGTTTGGTGACGGCTTCGTTGTAGGCCTCGGAGTCACCTAGTGCAG", "binding signal": "9760 fluorescence intensity (a.u.)"},
      {"sequence": "ATATAGTTGGGGTGATCACAGGTTGCGAATTGCATAATGTCGGAGTCACCTAGTGCAG", "binding signal": "8820 fluorescence intensity (a.u.)"},
      {"sequence": "CATTTTACGGTCAAGCATGTTTAAAAAAGTCAACGGCGAACGGAGTCACCTAGTGCAG", "binding signal": "13700 fluorescence intensity (a.u.)"},
      {"sequence": "GGTGCTCGTGTTCTAGCTCTGCTTCGATGGAGTAATCATGCGGAGTCACCTAGTGCAG", "binding signal": "9070 fluorescence intensity (a.u.)"},
      {"sequence": "GCAGTGGTGGGGAGAAGTTAGTCGCCATGCGATCATTAGACGGAGTCACCTAGTGCAG", "binding signal": "8320 fluorescence intensity (a.u.)"},
      {"sequence": "ACTGTCCCACTGTCCCACCCACCCACCACTCAACGGCTCACGGAGTCACCTAGTGCAG", "binding signal": "8780 fluorescence intensity (a.u.)"},
      {"sequence": "TGGGTGGTTGGAGCGCGATACAAGGATTGGGCATTTTGGACGGAGTCACCTAGTGCAG", "binding signal": "9360 fluorescence intensity (a.u.)"},
      {"sequence": "GTCACCTTTTCTTTTATCAACATTCATTTGTTTTATTACTCGGAGTCACCTAGTGCAG", "binding signal": "8270 fluorescence intensity (a.u.)"},
      {"sequence": "CTCGCTCTTGACGGCATTGCCCGTTCTTGGTATTTCAATTCGGAGTCACCTAGTGCAG", "binding signal": "9460 fluorescence intensity (a.u.)"},
      {"sequence": "ACCCTTATGTCACAAGCTGCCGCTACACAGATTCGCCTCACGGAGTCACCTAGTGCAG", "binding signal": "8580 fluorescence intensity (a.u.)"},
      {"sequence": "TTGTAAGTTTGTGTGTAGGAAAGTTTTGATGTGAGGAAAACGGAGTCACCTAGTGCAG", "binding signal": "9150 fluorescence intensity (a.u.)"},
      {"sequence": "TATCCTCTTATAGTTTTCTGGTGTGGAATTCTGTCTTGTACGGAGTCACCTAGTGCAG", "binding signal": "9930 fluorescence intensity (a.u.)"},
      {"sequence": "ACACCTACTGCTCACTCCGGCCAACCTAGCTAGCTTCCTCCGGAGTCACCTAGTGCAG", "binding signal": "12100 fluorescence intensity (a.u.)"},
      {"sequence": "ATGTCGTGGTGGCACTGCGCGAAGGGGAGGGAGCCGAGCTCGGAGTCACCTAGTGCAG", "binding signal": "8670 fluorescence intensity (a.u.)"},
      {"sequence": "CAAAGTCTCGCCATTTTCTCCTCCGTTTTGTTTTTTTTTTCGGAGTCACCTAGTGCAG", "binding signal": "9960 fluorescence intensity (a.u.)"},
      {"sequence": "GCTCTCGCCTCGCGGCTCTGCCCGCCGTTTCGCCCCAAAACGGAGTCACCTAGTGCAG", "binding signal": "8600 fluorescence intensity (a.u.)"},
      {"sequence": "CGCCCCACCATCCGCGTATTCGGCCGCTCCGCCGTCCAGGCGGAGTCACCTAGTGCAG", "binding signal": "8950 fluorescence intensity (a.u.)"},
      {"sequence": "ACTTGTCAGCGAATTCGATTTTCGTCCTTAACCCCAAAACCGGAGTCACCTAGTGCAG", "binding signal": "8280 fluorescence intensity (a.u.)"}
    ]}
  ]
}
